According to the supplement of paper PMC4604168 (melanoma cell lines):
The list shows a part of the results. Repeats are few or missing, and single values can be far off.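 Imaging used 1,536-well plates; nuclei positive for cleaved PARP by antibody were divided by total DNA-stained nuclei to yield the apoptosis fraction. Doses for screening kept most cells viable, and cell lines differ markedly in resting and induced cleaved-PARP levels.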

What was measured:
Test in all cases: cleaved PARP positive nuclei fraction relative to DMSO control; melanoma cells; higher = more apoptosis
Conditions in all cases: library dose: low library concentration; 72 h
[1] = tested on: COLO792
[2] = tested on: COLO800
[3] = tested on: COLO829
[4] = tested on: G361
[5] = tested on: IPC-298
[6] = tested on: IST-MEL1
[7] = tested on: LB2518-MEL
[8] = tested on: LOXIMVI
[9] = tested on: MZ2-MEL
[10] = tested on: MeWo
[11] = tested on: RPMI7951
[12] = tested on: RVH-421
[13] = tested on: SkMel28
[14] = tested on: SkMel2
[15] = tested on: SkMel30
[16] = tested on: SkMel5
[17] = tested on: UACC257
[18] = tested on: UACC62

Structure (SMILES) | cleaved PARP positive nuclei fraction [1] | cleaved PARP positive nuclei fraction [2] | cleaved PARP positive nuclei fraction [3] | cleaved PARP positive nuclei fraction [4] | cleaved PARP positive nuclei fraction [5] | cleaved PARP positive nuclei fraction [6] | cleaved PARP positive nuclei fraction [7] | cleaved PARP positive nuclei fraction [8] | cleaved PARP positive nuclei fraction [9] | cleaved PARP positive nuclei fraction [10] | cleaved PARP positive nuclei fraction [11] | cleaved PARP positive nuclei fraction [12] | cleaved PARP positive nuclei fraction [13] | cleaved PARP positive nuclei fraction [14] | cleaved PARP positive nuclei fraction [15] | cleaved PARP positive nuclei fraction [16] | cleaved PARP positive nuclei fraction [17] | cleaved PARP positive nuclei fraction [18]
Cc1ccc(Nc2nccc(N(C)c3ccc4c(C)n(C)nc4c3)n2)cc1S(N)(=O)=O [Pazopanib] + Cc1cc([N+](=O)[O-])ccc1NS(=O)(=O)c1cc(Cl)ccc1Cl [FH535] (first compound 0.4 µM, partner dose 1 µM) | 88.3% | 77.9% | 76.1% | 130% | 126% | 120% | 86.1% | 138% | 34.1% | 62.3% | 72.6% | 158% | 74.4% | 75.9% | 311% | 92.7% | 82.9% | 106%
CC[C@]1(O)C[C@H]2CN(CCc3c([nH]c4ccccc34)[C@@](C(=O)OC)(c3cc4c(cc3OC)N(C=O)[C@H]3[C@@](O)(C(=O)OC)[C@H](OC(C)=O)[C@]5(CC)C=CCN6CC[C@]43[C@@H]65)C2)C1 [vincristine] + Oc1cc(-c2nc(-c3ccccc3)[nH]c2-c2ccncc2)ccc1Cl [L779450] (first compound 0.0001 µM, partner dose 0.2 µM) | 136% | 143% | 142% | 160% | 54.8% | 59.4% | 339% | 47.1% | 177% | 132% | 127% | 126% | 225% | 146% | 128% | 80.5% | 97.4% | 371%
N#CC[C@H](C1CCCC1)n1cc(-c2ncnc3[nH]ccc23)cn1 [ruxolitinib] + O=S(=O)(c1ccccc1)N(CC(F)(F)F)c1ccc(C(O)(C(F)(F)F)C(F)(F)F)cc1 [T0901317] (first compound 1 µM, partner dose 1.4 µM) | 82.4% | 57.7% | 80.5% | 31.6% | 148% | 122% | 125% | 288% | 111% | 74.1% | 133% | 67.5% | 133% | 72.1% | 42.6% | 160% | 72.6% | 101%
CC[C@]1(O)C[C@H]2CN(CCc3c([nH]c4ccccc34)[C@@](C(=O)OC)(c3cc4c(cc3OC)N(C=O)[C@H]3[C@@](O)(C(=O)OC)[C@H](OC(C)=O)[C@]5(CC)C=CCN6CC[C@]43[C@@H]65)C2)C1 [vincristine] + COc1ccc(-c2ccc3c(N4CCOCC4)nc(N4C[C@@H](C)O[C@@H](C)C4)nc3n2)cc1CO [KU0063794] (first compound 0.0001 µM, partner dose 0.02 µM) | 219% | 100% | 103% | 80.9% | 326% | 103% | 62.8% | 118% | 29.2% | 28.6% | 50.8% | 87.7% | 58.6% | 294% | 142% | 84.5% | 159% | 172%
O=C(Nc1cc(C(F)(F)F)cc(C(F)(F)F)c1)c1cc(Cl)ccc1O + COc1ccc(-c2ccc3c(N4CCOCC4)nc(N4C[C@@H](C)O[C@@H](C)C4)nc3n2)cc1CO [KU0063794] (first compound 0.016 µM, partner dose 0.02 µM) | 195% | 94.6% | 33% | 96% | 88% | 44.7% | 68.2% | 47.1% | 193% | 124% | 148% | 49.2% | 185% | 38.9% | 107% | 73.4% | 105% | 125%
O=C(Nc1cc(C(F)(F)F)cc(C(F)(F)F)c1)c1cc(Cl)ccc1O + CC(C)CCN1c2nc(Nc3cc(F)c(O)c(F)c3)ncc2N(C)C(=O)C1C [BID1870] (first compound 0.016 µM, partner dose 0.2 µM) | 97.4% | 104% | 80.4% | 64.4% | 112% | 105% | 37.2% | 97.6% | 99.1% | 184% | 246% | 141% | 120% | 61.8% | 206% | 150% | 130% | 88.4%
CCCCCCCCCCCCCCCCCCOP(=O)([O-])OC1CC[N+](C)(C)CC1 [Perifosine] + COc1ccc(COc2ccc(Cc3cnc(N)nc3N)cc2OC)cc1 [GW2580] (first compound 0.4 µM, partner dose 1 µM) | 114% | 55.5% | 131% | 182% | 233% | 84.4% | 66.9% | 38.5% | 106% | 131% | 98.4% | 86.3% | 57.9% | 68.5% | 301% | 67.7% | 146% | 176%
CC[C@]1(O)C[C@H]2CN(CCc3c([nH]c4ccccc34)[C@@](C(=O)OC)(c3cc4c(cc3OC)N(C=O)[C@H]3[C@@](O)(C(=O)OC)[C@H](OC(C)=O)[C@]5(CC)C=CCN6CC[C@]43[C@@H]65)C2)C1 [vincristine] + COc1ccc(COc2ccc(Cc3cnc(N)nc3N)cc2OC)cc1 [GW2580] (first compound 0.0001 µM, partner dose 1 µM) | 140% | 74% | 132% | 183% | 86.2% | 134% | 59.1% | 222% | 179% | 189% | 121% | 46.2% | 127% | 79.6% | 118% | 73.9% | 141% | 87.7%
CCCCCCCCCCCCCCCCCCOP(=O)([O-])OC1CC[N+](C)(C)CC1 [Perifosine] + O=C(O)C(=O)Nc1sc2c(c1C(=O)O)CCNC2 [TCS401] (first compound 0.4 µM, partner dose 1.66667 µM) | 71.6% | 97.1% | 90.3% | 160% | 140% | 40% | 119% | 83.3% | 129% | 70.1% | 90.7% | 223% | 128% | 63.3% | 42.6% | 85.1% | 126% | 98.9%
Cc1cn(-c2cc(NC(=O)c3ccc(C)c(Nc4nccc(-c5cccnc5)n4)c3)cc(C(F)(F)F)c2)cn1 [nilotinib] + O=S(=O)(c1ccccc1)N(CC(F)(F)F)c1ccc(C(O)(C(F)(F)F)C(F)(F)F)cc1 [T0901317] (first compound 0.2 µM, partner dose 1.4 µM) | 111% | 54.9% | 81.8% | 130% | 143% | 208% | 61.1% | 51.4% | 98.2% | 36.6% | 134% | 75.9% | 159% | 28.2% | 43.6% | 81.9% | 139% | 254%
O=C(Nc1cc(C(F)(F)F)cc(C(F)(F)F)c1)c1cc(Cl)ccc1O + Oc1nc(-c2ccc(C(F)(F)F)cc2)nc2c1CSCC2 [XAV939] (first compound 0.016 µM, partner dose 2 µM) | 23.2% | 90.6% | 147% | 54.8% | 38.4% | 123% | 235% | 99.4% | 97.7% | 30.5% | 98.4% | 76.3% | 145% | 94.1% | 72.3% | 152% | 45.2% | 105%
Cc1cc(Nc2cc(N3CCN(C)CC3)nc(Sc3ccc(NC(=O)C4CC4)cc3)n2)n[nH]1 [Tozasertib] + CCc1ccc(CCOc2ccc(CC3SC(=O)NC3=O)cc2)nc1 [pioglitazone] (first compound 0.006 µM, partner dose 2 µM) | 148% | 229% | 70.9% | 158% | 98.9% | 34.8% | 33.8% | 133% | 51.1% | 92.3% | 33.6% | 83.9% | 121% | 124% | 89.5% | 67.3% | 62.4% | 70.4%
CC[C@]1(O)C[C@H]2CN(CCc3c([nH]c4ccccc34)[C@@](C(=O)OC)(c3cc4c(cc3OC)N(C=O)[C@H]3[C@@](O)(C(=O)OC)[C@H](OC(C)=O)[C@]5(CC)C=CCN6CC[C@]43[C@@H]65)C2)C1 [vincristine] + O=c1cc(-c2cccc3c2Sc2ccccc2S3)oc(N2CCOCC2)c1 [KU55933] (first compound 0.0001 µM, partner dose 1 µM) | 112% | 57.6% | 227% | 237% | 189% | 53.7% | 81.5% | 57.6% | 365% | 124% | 231% | 132% | 591% | 149% | 57.9% | 80.2% | 522% | 502%
O=C(Nc1cc(C(F)(F)F)cc(C(F)(F)F)c1)c1cc(Cl)ccc1O + O=c1cc(-c2cccc3c2Sc2ccccc2S3)oc(N2CCOCC2)c1 [KU55933] (first compound 0.016 µM, partner dose 1 µM) | 118% | 79.9% | 69.8% | 151% | 134% | 43.2% | 48% | 39.2% | 128% | 90% | 76.3% | 19% | 114% | 125% | 35.4% | 66.2% | 36.7% | 895%
O=C(/C=C/c1cccnc1)NCCCCC1CCN(C(=O)c2ccccc2)CC1 + COC(=O)c1sccc1S(=O)(=O)Nc1ccc(Nc2ccccc2)cc1OC [GSK0660] (first compound 0.01 µM, partner dose 1 µM) | 459% | 351% | 159% | 4670% | 264% | 84% | 198% | 65.7% | 1120% | 65.9% | 65.8% | 78.4% | 134% | 1080% | 50.4% | 88% | 27.7% | 94.5%
CCCCCCCCCCCCCCCCCCOP(=O)([O-])OC1CC[N+](C)(C)CC1 [Perifosine] + Oc1nc(-c2ccc(C(F)(F)F)cc2)nc2c1CSCC2 [XAV939] (first compound 0.4 µM, partner dose 2 µM) | 114% | 68.6% | 61.1% | 97.4% | 88.5% | 86.2% | 68.5% | 94.7% | 80% | 28.9% | 86.9% | 62.1% | 220% | 73.4% | 34.7% | 90.3% | 170% | 113%
COc1cc([C@@H]2c3cc4c(cc3[C@@H](O[C@@H]3O[C@@H]5CO[C@@H](C)O[C@H]5[C@H](O)[C@H]3O)[C@H]3COC(=O)[C@H]23)OCO4)cc(OC)c1O [etoposide] + COc1cc(N2CCC(N3CCN(C)CC3)CC2)ccc1Nc1ncc(Cl)c(Nc2ccccc2S(=O)(=O)C(C)C)n1 [NVP-TAE684] (first compound 0.02 µM, partner dose 0.08 µM) | 69% | 241% | 41.9% | 43.6% | 61.9% | 66.3% | 71.9% | 126% | 31.2% | 93.5% | 102% | 95.2% | 79.6% | 103% | 61.7% | 81.8% | 16.2% | 141%

Complete entries from above. Order of values: cleaved PARP positive nuclei fraction [1] | cleaved PARP positive nuclei fraction [2] | cleaved PARP positive nuclei fraction [3] | cleaved PARP positive nuclei fraction [4] | cleaved PARP positive nuclei fraction [5] | cleaved PARP positive nuclei fraction [6] | cleaved PARP positive nuclei fraction [7] | cleaved PARP positive nuclei fraction [8] | cleaved PARP positive nuclei fraction [9] | cleaved PARP positive nuclei fraction [10] | cleaved PARP positive nuclei fraction [11] | cleaved PARP positive nuclei fraction [12] | cleaved PARP positive nuclei fraction [13] | cleaved PARP positive nuclei fraction [14] | cleaved PARP positive nuclei fraction [15] | cleaved PARP positive nuclei fraction [16] | cleaved PARP positive nuclei fraction [17] | cleaved PARP positive nuclei fraction [18]
CC[C@]1(O)C[C@H]2CN(CCc3c([nH]c4ccccc34)[C@@](C(=O)OC)(c3cc4c(cc3OC)N(C=O)[C@H]3[C@@](O)(C(=O)OC)[C@H](OC(C)=O)[C@]5(CC)C=CCN6CC[C@]43[C@@H]65)C2)C1 [vincristine] + COc1ccc(COc2ccc(Cc3cnc(N)nc3N)cc2OC)cc1 [GW2580] (first compound 0.0001 µM, partner dose 1 µM) reads 140% | 74% | 132% | 183% | 86.2% | 134% | 59.1% | 222% | 179% | 189% | 121% | 46.2% | 127% | 79.6% | 118% | 73.9% | 141% | 87.7%
O=C(Nc1cc(C(F)(F)F)cc(C(F)(F)F)c1)c1cc(Cl)ccc1O + COc1ccc(-c2ccc3c(N4CCOCC4)nc(N4C[C@@H](C)O[C@@H](C)C4)nc3n2)cc1CO [KU0063794] (first compound 0.016 µM, partner dose 0.02 µM) reads 195% | 94.6% | 33% | 96% | 88% | 44.7% | 68.2% | 47.1% | 193% | 124% | 148% | 49.2% | 185% | 38.9% | 107% | 73.4% | 105% | 125%
